The assay deals with WDR45 (UniProt Q9Y484). As to the kind of experiment: affinity purification with mass spectrometry.

Protein sequences, listed by entry. Tags and fused reporters are not part of them.
UniProt Q9Y484: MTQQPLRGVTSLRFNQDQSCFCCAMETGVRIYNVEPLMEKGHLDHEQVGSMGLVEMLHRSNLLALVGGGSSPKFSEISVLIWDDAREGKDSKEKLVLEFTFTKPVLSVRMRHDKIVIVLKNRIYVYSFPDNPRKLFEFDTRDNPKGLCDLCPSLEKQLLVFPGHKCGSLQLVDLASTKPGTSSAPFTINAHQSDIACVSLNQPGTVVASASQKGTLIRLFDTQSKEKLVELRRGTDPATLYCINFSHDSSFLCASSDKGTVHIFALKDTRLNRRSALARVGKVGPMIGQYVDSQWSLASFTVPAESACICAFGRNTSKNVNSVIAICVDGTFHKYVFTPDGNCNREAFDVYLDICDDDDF
UniProt Q96BY7: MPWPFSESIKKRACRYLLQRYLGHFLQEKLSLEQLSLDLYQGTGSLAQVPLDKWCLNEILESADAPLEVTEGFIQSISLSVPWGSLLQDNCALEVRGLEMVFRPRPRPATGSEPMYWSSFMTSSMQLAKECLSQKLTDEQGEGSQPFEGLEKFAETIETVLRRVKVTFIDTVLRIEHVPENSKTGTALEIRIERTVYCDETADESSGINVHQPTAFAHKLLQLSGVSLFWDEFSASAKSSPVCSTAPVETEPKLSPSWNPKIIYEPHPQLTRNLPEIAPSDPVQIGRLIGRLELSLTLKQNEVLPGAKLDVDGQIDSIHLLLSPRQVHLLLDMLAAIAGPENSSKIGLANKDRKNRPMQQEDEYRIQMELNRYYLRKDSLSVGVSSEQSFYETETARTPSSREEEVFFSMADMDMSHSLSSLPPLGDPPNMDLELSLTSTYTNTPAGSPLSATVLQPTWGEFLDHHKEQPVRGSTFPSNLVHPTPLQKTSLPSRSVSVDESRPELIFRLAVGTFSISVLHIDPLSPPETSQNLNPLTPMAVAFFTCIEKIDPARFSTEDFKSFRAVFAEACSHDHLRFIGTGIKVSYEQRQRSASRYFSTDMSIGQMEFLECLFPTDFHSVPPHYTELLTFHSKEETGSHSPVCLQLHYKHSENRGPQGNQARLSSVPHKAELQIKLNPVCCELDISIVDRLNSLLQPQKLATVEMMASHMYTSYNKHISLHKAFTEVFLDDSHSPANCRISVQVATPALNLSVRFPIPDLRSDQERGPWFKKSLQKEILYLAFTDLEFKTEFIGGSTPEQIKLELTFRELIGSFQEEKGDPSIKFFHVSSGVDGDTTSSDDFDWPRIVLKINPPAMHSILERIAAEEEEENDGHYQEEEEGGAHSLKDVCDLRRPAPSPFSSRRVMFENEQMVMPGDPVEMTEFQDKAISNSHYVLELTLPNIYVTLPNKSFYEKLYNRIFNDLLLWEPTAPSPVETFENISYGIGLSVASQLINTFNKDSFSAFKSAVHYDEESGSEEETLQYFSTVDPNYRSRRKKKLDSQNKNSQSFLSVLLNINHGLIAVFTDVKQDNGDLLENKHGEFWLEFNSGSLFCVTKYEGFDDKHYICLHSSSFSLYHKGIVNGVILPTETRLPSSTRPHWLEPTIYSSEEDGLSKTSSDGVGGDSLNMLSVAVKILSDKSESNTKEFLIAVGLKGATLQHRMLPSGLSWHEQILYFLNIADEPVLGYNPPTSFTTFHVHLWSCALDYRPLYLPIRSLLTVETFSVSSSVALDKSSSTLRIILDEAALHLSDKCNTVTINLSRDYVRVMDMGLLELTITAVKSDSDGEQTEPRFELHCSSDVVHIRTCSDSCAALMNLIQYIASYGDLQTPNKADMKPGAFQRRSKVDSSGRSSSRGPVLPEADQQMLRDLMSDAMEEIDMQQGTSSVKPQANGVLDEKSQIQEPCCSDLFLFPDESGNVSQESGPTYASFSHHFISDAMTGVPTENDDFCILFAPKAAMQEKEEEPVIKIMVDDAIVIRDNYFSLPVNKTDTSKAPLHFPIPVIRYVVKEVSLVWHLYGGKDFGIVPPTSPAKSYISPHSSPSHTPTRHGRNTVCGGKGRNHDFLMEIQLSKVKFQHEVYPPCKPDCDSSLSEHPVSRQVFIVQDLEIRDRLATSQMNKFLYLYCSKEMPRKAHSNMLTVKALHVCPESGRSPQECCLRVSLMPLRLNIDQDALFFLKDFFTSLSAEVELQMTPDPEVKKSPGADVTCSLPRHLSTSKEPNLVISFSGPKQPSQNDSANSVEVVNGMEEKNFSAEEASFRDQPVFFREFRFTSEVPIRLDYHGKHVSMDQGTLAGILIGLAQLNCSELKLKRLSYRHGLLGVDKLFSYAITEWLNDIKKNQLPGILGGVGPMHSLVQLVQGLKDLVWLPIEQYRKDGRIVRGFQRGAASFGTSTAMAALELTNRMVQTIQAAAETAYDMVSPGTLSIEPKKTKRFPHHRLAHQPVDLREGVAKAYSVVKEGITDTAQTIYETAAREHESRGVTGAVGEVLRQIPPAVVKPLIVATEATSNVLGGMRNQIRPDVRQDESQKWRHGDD

Results are given in words; binding and its absence hold for the method and conditions named. Binding seen in cells or lysates may run through a third protein. These calls come from enrichment with a bait or labelling near it, and not all partners need be listed.

As to ATG2B (from UniProt Q96BY7 1-2078), the binding result was “binds”.

(Values after article doi:10.1101/282210.)
